Results as given in PubChem BioAssay AID2551 (National Center for Advancing Translational Sciences (NCATS), 2010).
About 17,000 (5.5%) of roughly 310,000 compounds were called active. Inconclusive means that the source gave no clear call. Such entries were picked first, then a sample of the others. The call rests on the fitted dose curve; in most records, active means well fitted inhibition curve with a large enough effect; inconclusive means small, poorly fitted or top-dose-only effect, or effect the other way; inactive means no such curve, though single readings can be large or run the other way. Potencies of inconclusive entries are doubtful fits and often do not repeat.

Chains of the proteins cited; added tags and fusions are not shown. Lines headed by an entry give the natural chain unless they say otherwise; changes in a name come on top.
UniProt P51450: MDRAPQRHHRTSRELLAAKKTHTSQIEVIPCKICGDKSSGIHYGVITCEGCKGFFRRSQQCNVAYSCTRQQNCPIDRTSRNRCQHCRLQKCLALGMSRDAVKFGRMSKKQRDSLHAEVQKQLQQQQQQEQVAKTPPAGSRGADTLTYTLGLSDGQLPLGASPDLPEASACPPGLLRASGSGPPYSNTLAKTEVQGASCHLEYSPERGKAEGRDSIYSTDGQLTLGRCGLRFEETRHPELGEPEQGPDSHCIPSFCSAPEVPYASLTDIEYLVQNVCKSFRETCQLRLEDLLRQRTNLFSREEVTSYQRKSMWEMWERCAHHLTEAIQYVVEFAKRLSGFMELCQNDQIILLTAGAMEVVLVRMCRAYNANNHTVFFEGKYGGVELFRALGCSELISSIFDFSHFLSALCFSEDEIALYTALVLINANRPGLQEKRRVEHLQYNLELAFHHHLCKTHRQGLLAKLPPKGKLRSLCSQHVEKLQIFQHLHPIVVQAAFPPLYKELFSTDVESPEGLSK

Each compound was assayed against Nuclear receptor ROR-gamma (Mus musculus) (UniProt P51450) (assay: qHTS for inhibitors of ROR gamma transcriptional activity). Settings: Drosophila S2 Gal4-RORgamma UAS-luciferase reporter, 20 h; activity change, negative = inhibition: at 53.6 µM (top of the series).
Procedure, shortened: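 Luminescence from a UAS-regulated Photinus luciferase reporter in stably transfected Drosophila Schneider cells is measured; decreased signal marks ROR gamma inhibition. Fusion expression is induced by 700 uM copper sulfate for 20 hr.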
Further: nearly all actives have a fitted effect of over 60% in size.
On the % scale 0 is the no-effect control and ±100 the full control effect; potency means the concentration at half of the fitted maximal effect.

Q: With `Cc1ccc2c(C)nc(Nc3nc(CSc4nnnn4-c4ccccc4)cc(=O)[nH]3)nc2c1` as the compound, how does the “activity change, negative = inhibition” value read?
A: inactive: -23.1%

Q: For `CC(C)Cc1cc(C(C)(C)C)ccc1OC(=S)N(C)C`, which Potency is on record?
A: active: 12.6 µM

Q: With `O=C(NC(=S)NNC(=O)c1ccc(Cl)cc1Cl)c1cccnc1` as the compound, how does the Potency read?
A: active: 12.6 µM

Q: Which Potency does the source give for `O=C(COc1ccccc1Cl)NC(=S)N1CCc2ccccc21` here?
A: active: 0.708 µM

Q: With `CC(=O)c1ccc(S(=O)(=O)NCCc2csc(-c3cccnc3)n2)cc1` as the compound, how does the Potency read?
A: inconclusive: 22.4 µM [activator, single point]

Q: With `CC(=O)O[C@H]1C[C@H]2CC[C@@H]3[C@@H](CC[C@]4(C)[C@H](OC(C)=O)[C@H]([N+]5(C)CCCCC5)C[C@@H]34)[C@]2(C)C[C@H]1[N+]1(C)CCCCC1` as the compound, how does the “activity change, negative = inhibition” value read?
A: inactive: -0.642% [at 16.9 µM]

Q: With `O=C(Nc1cccc(-c2cnc3ccccc3n2)c1)C1CC(=O)N(c2ccccc2)C1` (stereo not given) as the compound, how does the Potency read?
A: inconclusive: 4.47 µM [activator, partial curve]

Q: With `COc1cc(-c2nnc(COC(=O)CSc3cc(C)c4ccccc4n3)o2)cc(OC)c1OC` as the compound, how does the “activity change, negative = inhibition” value read?
A: inactive: -6.75%

Q: For `O=C(CCCN1C(=O)/C(=C\c2ccco2)SC1=S)Nc1cccc2ccccc12`, which Potency is on record?
A: inconclusive: 22.4 µM [inhibitor, single point]

Q: Which “activity change, negative = inhibition” value does the source give for `CC[C@@H](C)[C@@H](O)[C@H](C)C(=O)[C@H](C)/C=C(\C)C[C@H](C)[C@@H]1OC(=O)[C@H]1CC` here?
A: inactive: 17.6%

Q: `Cc1cc(C)c2c3c(sc2n1)C1(CCSCC1)C(C#N)=C(N)O3` was tested. Which Potency did it give?
A: inconclusive: 0.0891 µM [activator, partial curve, poor fit]

Q: With `CCOC(=O)N1CCC(N2Cc3cccc(C(=O)Nc4ccccc4OC)c3C2=O)CC1` as the compound, how does the “activity change, negative = inhibition” value read?
A: inactive: -25.7%

Q: For `Cc1ccc(-c2nnc(N3CCOCC3)c3ccccc23)cc1S(=O)(=O)N(C)C`, which Potency is on record?
A: inconclusive: 4.47 µM [activator, full curve, poor fit]

Q: How did the Potency turn out when `O=c1c2sccc2nc(SCc2ccc([N+](=O)[O-])cc2)n1Cc1ccccn1` was run?
A: inconclusive: 12.6 µM [activator, partial curve]

Q: How did the “activity change, negative = inhibition” value turn out when `COc1ccc(/C=N/N=C/c2ccc(OC)cc2)cc1` was run?
A: inactive: 1.92%

Q: With `O=S1(=O)N=C(Nc2nncs2)c2ccccc21` as the compound, how does the Potency read?
A: inconclusive: 6.31 µM [inhibitor, single point]

Q: Which Potency does the source give for `COc1ccc(Nc2ccccc2C(=O)O)cc1` here?
A: inconclusive: 22.4 µM [activator, single point]

Q: For `COc1ccc(-n2nc3c(N4CCC(C(=O)N5CCC(C)CC5)CC4)nnc(C)c3c2C)cc1`, which “activity change, negative = inhibition” value is on record?
A: inactive: 30.4%

Q: `COC(=O)CSc1cc(SCC(=O)OC)c(C#N)c(SCC(=O)OC)c1` was tested. Which “activity change, negative = inhibition” value did it give?
A: inactive: -9.46%

Q: Which Potency does the source give for `CC(=O)C(Sc1nc(N2CCOCC2)nc(N2CCOCC2)n1)C(=O)Nc1ccccc1` (stereo not given) here?
A: active: 0.891 µM
